# Measured values taken from the supplement of paper PMC8728848.
# The other results are listed elsewhere or left out.
# B1: MCL (Mus musculus), Q9Z2H6 (protein)
# chain: MWLEESQMKSKGTRHPQLIPCVFAVVSISFLSACFISTCLVTHHYFLRWTRGSVVKLSDYHTRVTCIREEPQPGATGGTWTCCPVSWRAFQSNCYFPLNDNQTWHESERNCSGMSSHLVTINTEAEQNFVTQLLDKRFSYFLGLADENVEGQWQWVDKTPFNPHTVFWEKGESNDFMEEDCVVLVHVHEKWVWNDFPCHFEVRRICKLPGITFNWKPSK
# Experiments:
# Experiment in all cases: glycan array binding signal (z-score within array); higher = stronger binding
# Conditions in all cases: glycan notation: IUPAC condensed, linker removed
# [1] = biological target: Neu5Ac(a2-3)Gal(b1-3)[Fuc(a1-4)]GlcNAc(b1-3)Gal(b1-4)[Fuc(a1-3)]GlcNAc
# Outline: (§1)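 The Consortium for Functional Glycomics database supplied 3228 glycan arrays, of which those lacking an available protein sequence were dropped. The binding signal, a within-array Z-score, was averaged across arrays of the same protein sequence and across linkers. Negative scores can be read as non-binding.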
# [2] = biological target: Neu5Ac(a2-3)Gal(b1-3)[Neu5Ac(a2-3)Gal(b1-4)]GlcNAc
# Outline: as §1
# [3] = biological target: Neu5Ac(a2-3)Gal(b1-3)[Neu5Ac(a2-6)]GalNAc
# Outline: as §1
# Neu5Ac(a2-3)Gal(b1-4)Glc = biological target: Neu5Ac(a2-3)Gal(b1-4)Glc
# Outline: as §1
# [4] = biological target: Neu5Ac(a2-3)Gal(b1-4)GlcNAc
# Outline: as §1
# [5] = biological target: Neu5Ac(a2-3)Gal(b1-4)GlcNAc(b1-2)Man(a1-3)[GlcNAc(b1-2)Man(b1-4)GlcNAc(b1-2)Man(a1-6)]Man(b1-4)GlcNAc(b1-4)GlcNAc
# Outline: as §1
# [6] = biological target: Neu5Ac(a2-3)Gal(b1-4)GlcNAc(b1-2)Man(a1-3)[Neu5Ac(a2-6)Gal(b1-4)GlcNAc(b1-2)Man(a1-6)]Man(b1-4)GlcNAc(b1-4)GlcNAc
# Outline: as §1
# [7] = biological target: Neu5Ac(a2-3)Gal(b1-4)GlcNAc(b1-3)Gal(b1-3)GlcNAc
# Outline: as §1
# [8] = biological target: Neu5Ac(a2-3)Gal(b1-4)GlcNAc(b1-3)Gal(b1-4)GlcNAc
# Outline: as §1
# [9] = biological target: Neu5Ac(a2-3)Gal(b1-4)GlcNAc(b1-3)Gal(b1-4)GlcNAc(b1-3)Gal(b1-4)GlcNAc
# Outline: as §1
# [10] = biological target: Neu5Ac(a2-3)Gal(b1-4)GlcNAc(b1-3)Gal(b1-4)[Fuc(a1-3)]GlcNAc
# Outline: as §1
# [11] = biological target: Neu5Ac(a2-3)Gal(b1-4)GlcNAc(b1-6)[Gal(b1-3)]GalNAc
# Outline: as §1
# [12] = biological target: Neu5Ac(a2-3)Gal(b1-4)GlcNAc(b1-6)[Neu5Ac(a2-3)Gal(b1-3)]GalNAc
# Outline: as §1
# [13] = biological target: Neu5Ac(a2-3)Gal(b1-4)GlcNAc6S
# Outline: as §1
# [14] = biological target: Neu5Ac(a2-3)Gal(b1-4)[Fuc(a1-3)]GlcNAc
# Outline: as §1
# [15] = biological target: Neu5Ac(a2-3)Gal(b1-4)[Fuc(a1-3)]GlcNAc(b1-3)Gal
# Outline: as §1
# [16] = biological target: Neu5Ac(a2-3)Gal(b1-4)[Fuc(a1-3)]GlcNAc(b1-3)Gal(b1-4)GlcNAc
# Outline: as §1
# [17] = biological target: Neu5Ac(a2-3)Gal(b1-4)[Fuc(a1-3)]GlcNAc(b1-3)Gal(b1-4)[Fuc(a1-3)]GlcNAc(b1-3)Gal(b1-4)[Fuc(a1-3)]GlcNAc
# Outline: as §1
# [18] = biological target: Neu5Ac(a2-3)Gal(b1-4)[Fuc(a1-3)]GlcNAc(b1-6)[Gal(b1-3)]GalNAc
# Outline: as §1
# [19] = biological target: Neu5Ac(a2-3)Gal(b1-4)[Fuc(a1-3)]GlcNAc6S
# Outline: as §1
# [20] = biological target: Neu5Ac(a2-3)Gal6S(b1-4)GlcNAc
# Outline: as §1
# [21] = biological target: Neu5Ac(a2-3)Gal6S(b1-4)[Fuc(a1-3)]GlcNAc
# Outline: as §1
# Neu5Ac(a2-3)GalNAc = biological target: Neu5Ac(a2-3)GalNAc
# Outline: as §1
# [22] = biological target: Neu5Ac(a2-3)GalNAc(b1-4)GlcNAc
# Outline: as §1
# [23] = biological target: Neu5Ac(a2-3)[GalNAc(b1-4)]Gal(b1-4)Glc
# Outline: as §1
# [24] = biological target: Neu5Ac(a2-3)[GalNAc(b1-4)]Gal(b1-4)GlcNAc
# Outline: as §1
# [25] = biological target: Neu5Ac(a2-3)[Neu5Ac(a2-6)]GalNAc
# Outline: as §1
# Neu5Ac(a2-6)Gal = biological target: Neu5Ac(a2-6)Gal
# Outline: as §1
# Neu5Ac(a2-6)Gal(b1-4)Glc = biological target: Neu5Ac(a2-6)Gal(b1-4)Glc
# Outline: as §1
# [26] = biological target: Neu5Ac(a2-6)Gal(b1-4)GlcNAc
# Outline: as §1
# [27] = biological target: Neu5Ac(a2-6)Gal(b1-4)GlcNAc(b1-2)Man(a1-3)[Gal(b1-4)GlcNAc(b1-2)Man(a1-6)]Man(b1-4)GlcNAc(b1-4)GlcNAc
# Outline: as §1
# [28] = biological target: Neu5Ac(a2-6)Gal(b1-4)GlcNAc(b1-2)Man(a1-3)[GlcNAc(b1-2)Man(a1-6)]Man(b1-4)GlcNAc(b1-4)GlcNAc
# Outline: as §1
# [29] = biological target: Neu5Ac(a2-6)Gal(b1-4)GlcNAc(b1-2)Man(a1-3)[GlcNAc(b1-2)Man(b1-4)GlcNAc(b1-2)Man(a1-6)]Man(b1-4)GlcNAc(b1-4)GlcNAc
# Outline: as §1
# [30] = biological target: Neu5Ac(a2-6)Gal(b1-4)GlcNAc(b1-2)Man(a1-3)[Neu5Ac(a2-6)Gal(b1-4)GlcNAc(b1-2)Man(a1-6)]Man(b1-4)GlcNAc(b1-4)GlcNAc
# Outline: as §1
# [31] = biological target: Neu5Ac(a2-6)Gal(b1-4)GlcNAc(b1-2)Man(a1-6)[Gal(b1-4)GlcNAc(b1-2)Man(a1-3)]Man(b1-4)GlcNAc(b1-4)GlcNAc
# Outline: as §1
# [32] = biological target: Neu5Ac(a2-6)Gal(b1-4)GlcNAc(b1-2)Man(a1-6)[GlcNAc(b1-2)Man(a1-3)]Man(b1-4)GlcNAc(b1-4)GlcNAc
# Outline: as §1
# [33] = biological target: Neu5Ac(a2-6)Gal(b1-4)GlcNAc(b1-3)Gal(b1-4)GlcNAc
# Outline: as §1
# [34] = biological target: Neu5Ac(a2-6)Gal(b1-4)GlcNAc(b1-3)Gal(b1-4)[Fuc(a1-3)]GlcNAc(b1-3)Gal(b1-4)[Fuc(a1-3)]GlcNAc
# Outline: as §1
# [35] = biological target: Neu5Ac(a2-6)Gal(b1-4)GlcNAc6S
# Outline: as §1
# Neu5Ac(a2-6)GalNAc = biological target: Neu5Ac(a2-6)GalNAc
# Outline: as §1
# [36] = biological target: Neu5Ac(a2-6)GalNAc(b1-4)GlcNAc
# Outline: as §1
# Neu5Ac(a2-8)Neu5Ac = biological target: Neu5Ac(a2-8)Neu5Ac
# Outline: as §1
# [37] = biological target: Neu5Ac(a2-8)Neu5Ac(a2-3)Gal(b1-4)Glc
# Outline: as §1
# [38] = biological target: Neu5Ac(a2-8)Neu5Ac(a2-3)[GalNAc(b1-4)]Gal(b1-4)Glc
# Outline: as §1
# [39] = biological target: Neu5Ac(a2-8)Neu5Ac(a2-8)Neu5Ac
# Outline: as §1
# [40] = biological target: Neu5Ac(a2-8)Neu5Ac(a2-8)Neu5Ac(a2-3)Gal(b1-4)Glc
# Outline: as §1
# [41] = biological target: Neu5Ac(a2-8)Neu5Ac(a2-8)Neu5Ac(a2-3)[GalNAc(b1-4)]Gal(b1-4)Glc
# Outline: as §1
# [42] = biological target: Neu5Ac(a2-8)Neu5Ac(a2-8)Neu5Ac(a2-8)Neu5Ac(a2-3)[GalNAc(b1-4)]Gal(b1-4)Glc
# Outline: as §1
# [43] = biological target: Neu5Ac(b2-6)Gal(b1-4)GlcNAc
# Outline: as §1
# Neu5Ac(b2-6)GalNAc = biological target: Neu5Ac(b2-6)GalNAc
# Outline: as §1
# [44] = biological target: Neu5Ac9Ac(a2-6)Gal(b1-4)GlcNAc
# Outline: as §1
# [45] = biological target: Neu5Gc(a2-3)Gal(b1-3)GlcNAc
# Outline: as §1
# [46] = biological target: Neu5Gc(a2-3)Gal(b1-3)[Fuc(a1-4)]GlcNAc
# Outline: as §1
# Neu5Gc(a2-3)Gal(b1-4)Glc = biological target: Neu5Gc(a2-3)Gal(b1-4)Glc
# Outline: as §1
# [47] = biological target: Neu5Gc(a2-3)Gal(b1-4)GlcNAc
# Outline: as §1
# [48] = biological target: Neu5Gc(a2-3)Gal(b1-4)[Fuc(a1-3)]GlcNAc
# Outline: as §1
# [49] = biological target: Neu5Gc(a2-6)Gal(b1-4)GlcNAc
# Outline: as §1
# Neu5Gc(a2-6)GalNAc = biological target: Neu5Gc(a2-6)GalNAc
# Outline: as §1
# [50] = biological target: Neu5Gc(b2-6)Gal(b1-4)GlcNAc
# Outline: as §1
binder,measurement,setting,value
B1,glycan array binding signal (z-score),[1],-0.245
same,glycan array binding signal (z-score),[2],2.08
same,glycan array binding signal (z-score),[3],0.696
same,glycan array binding signal (z-score),Neu5Ac(a2-3)Gal(b1-4)Glc,-0.222
same,glycan array binding signal (z-score),[4],-0.111
same,glycan array binding signal (z-score),[5],0.867
same,glycan array binding signal (z-score),[6],0.233
same,glycan array binding signal (z-score),[7],-0.565
same,glycan array binding signal (z-score),[8],0.327
same,glycan array binding signal (z-score),[9],0.026
same,glycan array binding signal (z-score),[10],-0.084
same,glycan array binding signal (z-score),[11],-0.716
same,glycan array binding signal (z-score),[12],-0.531
same,glycan array binding signal (z-score),[13],-0.011
same,glycan array binding signal (z-score),[14],0.196
same,glycan array binding signal (z-score),[15],-0.251
same,glycan array binding signal (z-score),[16],-0.166
same,glycan array binding signal (z-score),[17],-0.558
same,glycan array binding signal (z-score),[18],1.04
same,glycan array binding signal (z-score),[19],0.138
same,glycan array binding signal (z-score),[20],-0.385
same,glycan array binding signal (z-score),[21],0.186
same,glycan array binding signal (z-score),Neu5Ac(a2-3)GalNAc,-0.35
same,glycan array binding signal (z-score),[22],-1.14
same,glycan array binding signal (z-score),[23],-0.336
same,glycan array binding signal (z-score),[24],0.129
same,glycan array binding signal (z-score),[25],-0.824
same,glycan array binding signal (z-score),Neu5Ac(a2-6)Gal,0.4
same,glycan array binding signal (z-score),Neu5Ac(a2-6)Gal(b1-4)Glc,-0.186
same,glycan array binding signal (z-score),[26],-0.219
same,glycan array binding signal (z-score),[27],0.161
same,glycan array binding signal (z-score),[28],0.196
same,glycan array binding signal (z-score),[29],2.17
same,glycan array binding signal (z-score),[30],1.24
same,glycan array binding signal (z-score),[31],0.141
same,glycan array binding signal (z-score),[32],1.82
same,glycan array binding signal (z-score),[33],-0.165
same,glycan array binding signal (z-score),[34],0.74
same,glycan array binding signal (z-score),[35],-0.081
same,glycan array binding signal (z-score),Neu5Ac(a2-6)GalNAc,0.241
same,glycan array binding signal (z-score),[36],-0.814
same,glycan array binding signal (z-score),Neu5Ac(a2-8)Neu5Ac,-0.618
same,glycan array binding signal (z-score),[37],-0.48
same,glycan array binding signal (z-score),[38],-0.713
same,glycan array binding signal (z-score),[39],0.123
same,glycan array binding signal (z-score),[40],0.641
same,glycan array binding signal (z-score),[41],-0.346
same,glycan array binding signal (z-score),[42],1.55
same,glycan array binding signal (z-score),[43],-0.473
same,glycan array binding signal (z-score),Neu5Ac(b2-6)GalNAc,-0.879
same,glycan array binding signal (z-score),[44],0.78
same,glycan array binding signal (z-score),[45],0.192
same,glycan array binding signal (z-score),[46],-0.827
same,glycan array binding signal (z-score),Neu5Gc(a2-3)Gal(b1-4)Glc,-0.554
same,glycan array binding signal (z-score),[47],0.309
same,glycan array binding signal (z-score),[48],-0.147
same,glycan array binding signal (z-score),[49],0.465
same,glycan array binding signal (z-score),Neu5Gc(a2-6)GalNAc,-0.113
same,glycan array binding signal (z-score),[50],0.767

# As a short view, some entries already given:
binder,measurement,setting,value
B1,glycan array binding signal (z-score),[19],0.138
same,glycan array binding signal (z-score),[20],-0.385
same,glycan array binding signal (z-score),[21],0.186
